# Measurements from PubChem BioAssay AID2685 (National Center for Advancing Translational Sciences (NCATS), 2010).
# Out of some 320,000 compounds screened, about 2,100 (0.66%) were called active. Inconclusive results, whose numbers are uncertain, are shown with a selection of clear calls. Calls come from the whole dose curve; as a rule, active = well fitted inhibition curve with a large enough effect in the signal ratio, with a control signal flat (not every such curve was filed as active); inconclusive = small, poorly fitted or top-dose-only effect, or effect the other way, or a change in a side signal; inactive = flat fitted curve, though single readings scatter; the % refers to the signal ratio. Potencies of inconclusive entries are doubtful fits and often do not repeat.
# Assay: qHTS Assay for Lipid Storage Modulators in Drosophila S3 Cells
# Details: BODIPY lipid droplet fluorescence, 18-24 h, cells fed with added oleic acid; lipid storage change, negative = inhibition: at 46.1 µM (top of the series) unless noted
# Procedure, shortened: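 Drosophila S3 cells loaded with oleic acid (400 uM, as added) and compounds at several concentrations; lipid droplets imaged by 488-nm laser-scanning cytometry, 500–530 nm intensity and object ratio to cell channel. Percent activity normalized to 20 uM Triacsin C.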
# % is set by controls: 0 for no effect and ±100 for the full control effect; potency is the fitted concentration of half-maximal effect.
SMILES,"lipid storage change, negative = inhibition",Potency,outcome
CCOC(=O)COn1c(=O)c(=O)n(OC)c2ccccc21,inconclusive: 10.2%,–,–
CCOCC(=O)Nc1cc(-c2cn3cccnc3n2)ccc1C,inconclusive: -32.3%,–,–
O=C(Cc1ccc(NC2=NC3CS(=O)(=O)CC3S2)cc1)N1CCN(c2ccc(F)cc2)CC1 (centres undefined),inconclusive: -25.1%,–,–
COc1ccc(/C(C)=N/NC(=O)CNC(=O)/C=C\c2ccccc2)c(OC)c1,inconclusive: -29.9%,–,–
COC(=O)/C=c1/s/c(=C(/C#N)C(=O)N2CCCCC2)n(-c2ccccc2)c1=O,–,"inconclusive: 14.6 µM [falling, single point]",–
Cc1ccccc1C1CC(c2ccccc2OC(F)F)Nc2ncnn21 (centres undefined),–,"inconclusive: 0.092 µM [activator, full curve, poor fit]",–
COc1ccccc1-n1c(SCC(=O)N2CCCC2)nc2cccnc21,inconclusive: 71.1%,–,–
Cc1ccc2c(c1)c(C1=c3ccccc3=NC1=O)c(O)n2C,–,"inconclusive: 29.1 µM [cytotoxic, single point]",–
O=[N+]([O-])c1cc(-c2n[nH]c(-c3ccccc3)n2)cc([N+](=O)[O-])c1,–,"inconclusive: 13 µM [activator, partial curve, poor fit]",–
CCOC(=O)C1CCCN(C(=O)c2cn(C)c3ccc(S(=O)(=O)N(C)C)cc3c2=O)C1 (centres undefined),inconclusive: -9.91%,–,–
Cc1ccc(C(=O)CSc2nnc(-c3ccco3)o2)o1,–,"inconclusive: 0.326 µM [falling, full curve, poor fit]",–
O=C(NC1CCCC1)c1cc(S(=O)(=O)N2CCCC2)ccc1Cl,inconclusive: -32.5%,–,–
COc1ccc(CCNC(=O)CN(C)S(=O)(=O)c2ccc3nc(C)sc3c2)cc1OC,inconclusive: 53.2%,–,–
CCOC(=O)c1c(C)[nH]c(C)c1S(=O)(=O)NCC1CCN(Cc2ccccc2OC)CC1,inconclusive: -11.5%,–,–
COc1ccccc1CNC(=O)CCCN1C(=O)NC2(CCCC2)C1=O,inconclusive,–,–
CC(C)CC(c1nnnn1C1CCCC1)N1CCN(C(=O)c2ccco2)CC1 (centres undefined),–,–,inactive [at 46.1 µM]
COc1ccc(-n2c(SCC(=O)Nc3ncc(Cl)cc3Cl)nc3ccccc32)cc1,inconclusive: 40.6%,–,–
CCOC(=O)CN1C(=O)/C(=C/c2cccc(Br)c2)Oc2ccccc21,inconclusive: 15.2%,–,–
COC(=O)c1cn(NC(=O)CC2CCCCC2)c(=O)c2ccccc12,–,"inconclusive: 9.2 µM [activator, partial curve]",–
Cc1cnc(NC(=O)CSc2nnc(C)s2)s1,inconclusive: -5.51%,–,–
COC(=O)C1=C(C)NC=C([N+](=O)[O-])C1c1ccc(OC)cc1 (centres undefined),inconclusive: -88.4%,–,–
Cc1ccc(CNC(=O)[C@H](Cc2ccccc2)NC(=O)C2CCNCC2)cc1,inconclusive: -1.71%,–,–
CCn1c2ccccc2c2cc(C3N=C(N)Nc4nc5ccccc5n43)ccc21 (centres undefined),inconclusive: 23%,–,–
COC(=O)c1cc(Oc2ccc(S(=O)(=O)N3CCOCC3)cc2[N+](=O)[O-])cc(C(=O)OC)c1,–,"inconclusive: 29.1 µM [falling, single point]",–
N#Cc1ccc(C(=O)Nc2cccc3cccnc23)c(F)c1,inconclusive: 9.11%,–,–

# Structures above containing a cyano group (2):
SMILES,"lipid storage change, negative = inhibition",Potency,outcome
COC(=O)/C=c1/s/c(=C(/C#N)C(=O)N2CCCCC2)n(-c2ccccc2)c1=O,–,"inconclusive: 14.6 µM [falling, single point]",–
N#Cc1ccc(C(=O)Nc2cccc3cccnc23)c(F)c1,inconclusive: 9.11%,–,–

# (continued)

SMILES,"lipid storage change, negative = inhibition",Potency,outcome
CCn1c(CC(=O)Nc2ccccc2C)nnc1SCC(=O)NC1CCCC1,–,"inconclusive: 29.1 µM [activator, single point]",–
O=C(Nc1cccc(-c2ccc(F)cc2)c1)C1CCCN(Cc2cccnc2)C1 (centres undefined),inactive: -8.86%,–,–
CCOc1cc(/C=N/NC(=O)c2ccc3c(c2)OCCO3)cc(Br)c1O,–,"inconclusive: 0.259 µM [activator, single point]",–
COc1ccccc1NC(=O)NS(=O)(=O)c1ccc(C)cc1,inconclusive: -145%,–,–
COc1cc2c(=O)n(CC3CCCO3)c(=O)n(CC(=O)Nc3ccccc3)c2cc1OC (centres undefined),–,"inconclusive: 29.1 µM [activator, single point]",–
CCCCC(=O)Nc1ccc(Cl)cn1,inconclusive: -17.6%,–,–
O=C(COC(=O)c1cc([N+](=O)[O-])ccc1N1CCOCC1)NCc1ccc(Cl)cc1Cl,–,"inconclusive: 16.4 µM [falling, single point]",–
COc1cc(NC(=O)COC(=O)CSc2ccccc2F)c(C)cc1[N+](=O)[O-],–,"inconclusive: 0.0065 µM [falling, full curve]",–
COc1ccc(NS(=O)(=O)c2cc3c(cc2C)N(C)CCO3)c(OC)c1,inconclusive: -6.01%,–,–
CC1Cc2ccccc2N1C(=O)CNc1ccccc1N1CCCCC1 (centres undefined),inactive: -0.0673%,–,–
Cc1ccc(C(=O)Nc2ccnc(-c3ccncc3)n2)cc1,–,"inconclusive: 0.82 µM [cytotoxic, full curve]",–
Cc1cccc(C(=O)NCCC(=O)NCc2ccccc2Cl)c1,–,active: 1.84 µM,–
CC(=O)c1ccc(S(=O)(=O)N2CCN(C(=O)CSC(=S)N3CCCC3)CC2)cc1,inconclusive: 22.9%,–,–
COCCCn1c(C(=O)N2CCOCC2)cc2c(=O)n3ccccc3nc21,inactive: -8.57%,–,–
CCCCOc1ccccc1NC(=O)CSc1nnnn1C(C)(C)C,inconclusive: 18.6%,–,–
Cc1noc(/C=C/c2ccco2)c1S(=O)(=O)N1CCC(C(=O)N2CCc3ccccc3C2)CC1,inconclusive: -11.8%,–,–
COc1ccc(C2=C(O)C(C)N(c3ccccc3)C2=N)cc1OC (centres undefined),inconclusive: 16.5%,–,–
Cc1cccc(Nc2nc(-c3ccc(F)c(C)c3)cs2)n1,–,"inconclusive: 13 µM [activator, partial curve]",–
COc1cccc2[nH]c(C(=O)NCc3ccccc3)cc12,inconclusive: 20.3%,–,–
Cc1cccc(C(=O)Nc2nnc(-c3ccc(C(C)(C)C)cc3)s2)c1,inconclusive: 8.75%,–,–
CCOc1ccc2[nH]c3c(N4CCC5(CC4)OCCO5)ncnc3c2c1,inconclusive: -23.3%,–,–
O=P(OC1CCCCC1)(OC1CCCCC1)C(O)c1c(Cl)cccc1Cl (centres undefined),inconclusive: 22.9%,–,–
Cc1ccc(Cl)cc1Nc1nc(-c2sc(NC(=O)C(C)(C)C)nc2C)cs1,inconclusive: -12.2%,–,–
C[C@@H]1CC[C@@]23COC(=O)C2=CCC[C@@H]3[C@@]1(C)CC/C(=C/CO)CO,inconclusive: -1.24%,–,–
